Measurements taken from PubChem BioAssay AID1347076 (National Center for Advancing Translational Sciences (NCATS), 2019).
About 13,000 (3.2%) of roughly 400,000 compounds were called active. This list was built around the results that the source calls inconclusive (neither active nor inactive); the mix of calls is not that of the screen. Calls follow the shape of the dose curve; as a rule, active = well fitted cell-killing curve with a large enough effect; inconclusive = small, poorly fitted or top-dose-only effect, or effect the other way; inactive = flat fitted curve, though single readings scatter. A potency beside an inconclusive call is a rough fit, not a confirmed value.

Assay: qHTS assay for MDR1-selective chemotherapeutics: Primary screen using the drug-selected MDR subline cells KB-V1; also: nearly all actives have a fitted effect of over 60% in size
Settings: KB-V1 MDR cells viability, CellTiter-Glo, 72 h; activity change, negative = cytotoxicity: at 46.1 µM (top of the series)
Summary of the method: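 Readout: CellTiter-Glo luminescence, 10 min after addition. Cells: KB-V1 MDR subline, 72 h at 37 degrees C with compound. Analysis: corrected, normalized data fitted to concentration-effect curves.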
% is scaled to controls: 0 for no effect and ±100 for the full control effect; potency is read from the fitted curve at half-maximal effect.

Compound | Potency | activity change, negative = cytotoxicity
CCOc1ccc(-c2cc(C(=O)NCCCN3CCN(CC)CC3)c3ccccc3n2)cc1 | inconclusive: 14.1 µM [cytotoxic, single point] | –
COc1ccc(-c2c(-c3ccc(O)cc3O)n[nH]c2C)cc1OC | inconclusive: 20.6 µM [cytotoxic, single point] | –
Cc1ccc(-n2c3c(c(=O)[nH]c2=S)C(C(F)(F)F)(C(F)(F)F)NC(=O)N3)cc1 | inconclusive: 5.8 µM [rising, full curve, poor fit] | –
CCn1c(CNc2ccc(OC)cc2)nnc1SCC(=O)c1ccc(OC)cc1 | inactive | –
CC(C)(Oc1ccc(Cl)cc1)C(=O)OCC(=O)NCCc1ccccc1 | inconclusive: 20.6 µM [rising, single point] | –
O=C(OCn1ncc(Cl)c(Cl)c1=O)c1ccc(C(F)(F)F)cc1 | active: 6.51 µM | –
COc1ccc(C2=NOC(C(=O)NC3CCCCC3)C2)cc1OC (stereo not drawn) | active: 16.4 µM | –
COc1ccc(OC)c(CCNC(=O)Cn2ccc3cc(S(=O)(=O)N4CCCCC4)ccc32)c1 | inactive | –
CCCC(CCC)C(=O)O | inactive | –
O=C(Nc1nnc(SCc2ccc(Cl)cc2)s1)c1ccco1 | inconclusive: 29.1 µM [cytotoxic, single point] | –
CC(C)Oc1ccc(S(=O)(=O)N2CCOCC2)cc1NC(=O)C1=COCCO1 | inconclusive: 10.3 µM [cytotoxic, partial curve, poor fit] | –
Cc1cnccc1CN(C)Cc1cn(C)nc1-c1cccc(Cl)c1 | inconclusive: 10.3 µM [cytotoxic, partial curve] | –
O=C(COc1ccc2ccccc2c1)N1CCN(C(=O)c2ccco2)CC1 | inconclusive: 29.1 µM [cytotoxic, single point] | –
COc1ccc(OC)c(-c2noc(N3CCN(c4cc(C)ccc4C)CC3)n2)c1 | inactive | –
Cc1ccccc1NC(=O)CSc1nc2n(n1)CCCCC2 | inactive | –
O=C(c1ccc(F)cc1)C1CCN(C(=O)NC2CCCCC2)CC1 | inconclusive: 23.1 µM [cytotoxic, partial curve, poor fit] | –
Nn1c(Cc2cccc3ccccc23)nnc1SCCOc1ccc(F)cc1 | inconclusive: 16.4 µM [cytotoxic, single point] | –
CCOc1ccc(CCNC(=O)CN2C(=O)NC3(CCCCC3C)C2=O)cc1OCC (stereo not drawn) | inconclusive: 32.6 µM [rising, single point] | –
CCN(CC)c1ccc(NC(=O)c2sc3ccccc3c2Cl)cc1 | inactive | –
COc1ccc(OC)c(C(c2nnnn2C2CCCC2)N2CCN(c3ccc(F)cc3)CC2)c1 (stereo not drawn) | inconclusive: 4.61 µM [cytotoxic, partial curve] | –
Cc1cc(C)c2nc(N3CCC(C(=O)NCCCN4CCCCC4)CC3)sc2c1 | inconclusive: 20.6 µM [cytotoxic, single point] | –
CCOC(=O)c1cc(OC(=O)c2ccc(OC)cc2)n(-c2ccccc2)n1 | inactive | –
COc1ccc(NC(=O)C(Cc2ccccc2)NS(=O)(=O)c2ccc3c(c2)CCN3C(C)=O)cc1 (stereo not drawn) | inactive | –
CC1(C)C[C@H](O)[C@]2(CO)[C@H](O)C[C@]3(C)C(=CCC4[C@@]5(C)CC[C@H](O)C(C)(C)C5CC[C@]43C)[C@@H]2C1 (stereo partly drawn) | inconclusive: 14.6 µM [cytotoxic, partial curve, poor fit] | –
Cc1ccc(NC(=O)CSc2nc3c(c(=O)[nH]2)CN(Cc2ccc(F)cc2)CC3)cc1C | inconclusive: 20.6 µM [cytotoxic, single point] | –

Among those listed so far, six have fluorine:
Compound | Potency | activity change, negative = cytotoxicity
Cc1ccc(-n2c3c(c(=O)[nH]c2=S)C(C(F)(F)F)(C(F)(F)F)NC(=O)N3)cc1 | inconclusive: 5.8 µM [rising, full curve, poor fit] | –
O=C(OCn1ncc(Cl)c(Cl)c1=O)c1ccc(C(F)(F)F)cc1 | active: 6.51 µM | –
O=C(c1ccc(F)cc1)C1CCN(C(=O)NC2CCCCC2)CC1 | inconclusive: 23.1 µM [cytotoxic, partial curve, poor fit] | –
Nn1c(Cc2cccc3ccccc23)nnc1SCCOc1ccc(F)cc1 | inconclusive: 16.4 µM [cytotoxic, single point] | –
COc1ccc(OC)c(C(c2nnnn2C2CCCC2)N2CCN(c3ccc(F)cc3)CC2)c1 (stereo not drawn) | inconclusive: 4.61 µM [cytotoxic, partial curve] | –
Cc1ccc(NC(=O)CSc2nc3c(c(=O)[nH]2)CN(Cc2ccc(F)cc2)CC3)cc1C | inconclusive: 20.6 µM [cytotoxic, single point] | –

(continued)

Compound | Potency | activity change, negative = cytotoxicity
COc1ccccc1C1=NC(c2ccc(F)cc2)N=C1C (stereo not drawn) | inconclusive: 25.9 µM [cytotoxic, partial curve, poor fit] | –
COc1cccc2cc(-c3nnc(SCC(=O)NCCc4ccccc4)n3C)oc12 | inactive | –
CCN(CC)C(=O)Cn1cnc2sc(C(=O)N3CCN(c4ccc(F)cc4)CC3)c(C)c2c1=O | inactive | –
CC(=O)c1ccc(NC(=O)CSc2nc(Nc3ccccc3)nc(N3CCOCC3)n2)cc1 | inconclusive: 20.6 µM [cytotoxic, single point] | –
Cc1ccc(C2CC(c3cccs3)=NN2C(=O)CCl)cc1 (stereo not drawn) | inconclusive: 29.1 µM [cytotoxic, single point] | –
CCCCN1C(=O)C(CC(=O)NCc2cccs2)CC(C(=O)N2CCCCCC2)=C1C (stereo not drawn) | inconclusive: 8.2 µM [cytotoxic, partial curve] | –
Cc1cc(=O)[nH]c(SCC(=O)NCCC2=CCCCC2)n1 | inconclusive: 7.31 µM [rising, partial curve] | –
O=c1nc(Oc2ccccc2)nc2ncccn12 | inconclusive: 25.9 µM [cytotoxic, single point] | –
Cc1ccccc1/C=N/N=C1/NC(=O)CCS1 | inconclusive: 29.1 µM [cytotoxic, single point] | –
CCOC(=O)Cc1ccc(NC(=O)Nc2cc3c(cc2N2CCCCC2)n(C)c(=O)n3C)cc1 | inactive | –
Fc1ccc(-n2nnnc2-c2cnc(-c3cccs3)nc2C(F)(F)F)cc1 | active: 23.1 µM | –
COc1cc(NC(=O)c2cc3c(C)nc4ccccc4c3o2)cc(OC)c1OC | inconclusive: 29.1 µM [cytotoxic, single point] | –
Cc1cc(OC(F)F)ccc1NC(=O)Nc1ccc([N+](=O)[O-])cc1 | inconclusive: 18.4 µM [cytotoxic, single point] | –
O=C1OC(c2ccccc2)(c2ccc(O)cc2)c2ccccc21 (stereo not drawn) | inactive | –
CC1Sc2ccc(S(=O)(=O)N3CCC(C(=O)NCc4ccco4)CC3)cc2NC1=O (stereo not drawn) | inactive | –
Cc1ccc(S(=O)(=O)NCCSc2nnnn2-c2ccc(C(N)=O)cc2)cc1 | inconclusive: 7.31 µM [rising, partial curve] | –
O=C(CC1(O)C(=O)N(Cc2cccc3ccccc23)c2ccccc21)c1cccnc1 (stereo not drawn) | active: 20.6 µM | –
CN(Cc1ccccc1)C(=O)Cn1nnc(-c2ccccc2)c1COc1ccccc1 | inactive | –
CCCSc1nc(-c2ccc(OC)cc2)cc(-c2ccccc2OC)c1C#N | inconclusive: 29.1 µM [rising, single point] | –
CCCNc1ccc(S(=O)(=O)N(CC)CC)cn1 | inactive | –
O=C(NCCc1ccc(Cl)cc1)c1ccc2nc[nH]c2c1 | inactive | –
C=C1CC[C@@H]2[C@](C)(CO)[C@H](O)CC[C@@]2(C)[C@@H]1C/C=C1/C(=O)OCC1O (stereo partly drawn) | inactive | –
Cc1occc1C(=O)NCc1nc(-c2ccccc2)no1 | inactive | –
CCCCCc1c(-c2ccc(F)cc2)ncn1CCc1ccccc1OC | active: 11.6 µM | –
COc1ccc(Cl)cc1Nc1cc(C)nc2nc(-c3ccccc3C)nn12 | inactive | –

Compound | Potency | activity change, negative = cytotoxicity
CCCN1C(=O)/C(=C/c2ccc3c(c2)OCO3)NC1=S | inconclusive: 14.6 µM [cytotoxic, partial curve] | –
CCOC(=O)C1=CN(Cc2cccc(F)c2)S(=O)(=O)NC1c1ccc(F)c(Cl)c1 (stereo not drawn) | inconclusive: 20.6 µM [cytotoxic, single point] | –
CCC(=O)NCCc1nc2cc(NC(=O)c3ccc(F)cc3)ccc2n1C | – | inconclusive: 33.4%
COc1ccc(C2Nc3cc(OC)ccc3-n3cccc32)cc1 (stereo not drawn) | inconclusive: 14.6 µM [cytotoxic, single point] | –
COc1cc(CN2CCC(CO)(CCOc3ccccc3)CC2)cc(OC)c1 | inconclusive: 5.8 µM [cytotoxic, partial curve] | –
Cn1nc(C(=O)NCc2ccc(F)cc2)cc1C(=O)NCc1ccc(F)cc1 | inconclusive: 11.6 µM [cytotoxic, partial curve] | –
COC(=O)c1cccc(NC(=S)NCc2ccco2)c1 | inconclusive: 29.1 µM [rising, single point] | –
Cc1ccc(CNc2ncnc3c2c(-c2ccccc2)cn3-c2ccccc2)cc1 | inactive | –
O=C(N[C@@H]1C/C=C\C[C@@H](CC(=O)N(CCO)Cc2ccccc2)C(=O)N[C@@H](c2ccccc2)COC1=O)OCC1c2ccccc2-c2ccccc21 | inactive | –
CC(C)(C)NS(=O)(=O)c1ccc(NC(=O)NC2CCCCC2)cc1 | inconclusive: 29.1 µM [cytotoxic, single point] | –
Cc1csc2ncnc(NC3CCN(Cc4ccccc4)CC3)c12 | inconclusive: 2.31 µM [cytotoxic, partial curve, poor fit] | –
CNc1ncnc2c1ncn2[C@H]1CN(CCOC)C[C@@H](CO)O1 | inactive | –
COc1cc(N)c(Cl)cc1C(=O)OC(C)C(=O)Nc1cccc(S(=O)(=O)N2CCOCC2)c1 (stereo not drawn) | inactive | –
S=c1[nH]nc(-c2cc(-c3ccco3)[nH]n2)n1-c1ccccc1Cl | inactive | –
CC(=O)Nc1nc(C)c(-c2csc(Nc3ccc(O)cc3)n2)s1 | inactive | –
CN(C)CCCNC(=O)C[C@H]1C[C@H](C(=O)N2CCOCC2)[C@@]2(CCC3CCCC3)c3[nH]c4cc(-c5ccco5)ccc4c3CCN2C1=O | inactive | –
CN(Cc1ccc(Cl)cc1)C(CCc1ccccc1)C(=O)NC1CCCCC1 (stereo not drawn) | inactive | –
Cc1ccc(C)c(NC(=O)c2ccccc2Sc2ccc([N+](=O)[O-])cc2Cl)c1 | inconclusive: 20.6 µM [cytotoxic, single point] | –
Cc1ccc(Cn2nnc(C(=O)Nc3cccc(C)c3C)c2N)cc1 | active: 14.6 µM | –
C=CCn1c(-c2csc3ccccc23)n[nH]c1=S | inconclusive: 20.6 µM [cytotoxic, single point] | –
O=C(Nc1ccccc1)C1(c2ccccc2)CC1(Cl)Cl (stereo not drawn) | inconclusive: 18.4 µM [cytotoxic, single point] | –
Cc1ccc(S(=O)(=O)N2C[C@H]3n4c(=O)ccc(=O)n4C[C@H](OC(=O)NC4CCCC4)[C@@]3(O)C2)cc1 | inactive | –
COC(=O)C1=C(C)N(Cc2ccccc2)C(=NCCc2c[nH]c3ccccc23)N[C@H]1c1cccc(C(F)(F)F)c1 | inconclusive: 32.6 µM [cytotoxic, partial curve, poor fit] | –
